# Source: PubChem BioAssay AID504467 (National Center for Advancing Translational Sciences (NCATS), 2011)
# About 7,700 (2.3%) of roughly 330,000 compounds were called active. Inconclusive means that the source gave no clear call. Such entries were picked first, then a sample of the others. Calls come from the whole dose curve; as a rule, active = well fitted inhibition curve with a large enough effect; inconclusive = small, poorly fitted or top-dose-only effect, or effect the other way; inactive = flat fitted curve, though single readings scatter. Where the call is inconclusive, the potency comes from a doubtful curve fit.
# Assay: qHTS screen for small molecules that inhibit ELG1-dependent DNA repair in human embryonic kidney (HEK293T) cells expressing luciferase-tagged ELG1; note: nearly all actives have a fitted effect of over 55% in size
# Conditions: HEK293T ELG1-luciferase reporter, luminescence, 16 h, DNA damage induced by 5-fluorouridine; series mostly up to 46.1 µM
# Summary of the method: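 5-Fluorouridine DNA damage + compound/DMSO, 2,000 cells/well, 16 h, 37 °C/5% CO2. ONE-Glo, 30 min RT, luminescence. Readout = decrease in reporter signal.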
# Potency is the fitted concentration of half-maximal effect.
row,SMILES,Potency
1,Cc1ccc(C=C2C(=O)c3ccccc3C2=O)o1,"inconclusive: 18.4 µM [activator, single point]"
2,O=S(=O)(c1ccc(F)cc1)c1nc(-c2ccco2)oc1Nc1ccc(F)cc1,"inconclusive: 23.1 µM [inhibitor, single point]"
3,Cc1c(C(C)C)c(=O)n(-c2ccc(S(=O)(=O)NCc3ccccc3)cc2)n1C,active: 1.46 µM
4,Oc1c(CN2CCCC(C(F)(F)F)C2)cc(Cl)c2ccccc12 (stereo not given),inactive
5,O=C(CN1CCc2ccccc2C1)c1cccs1,"inconclusive: 0.651 µM [activator, single point]"
6,C[C@H]1[C@H](C)CC[C@]2(C(=O)O)CC[C@]3(C)C(=CC[C@@H]4[C@@]5(C)C[C@@H](O)[C@H](O)C(C)(C)[C@@H]5CC[C@]43C)[C@H]12,"inconclusive: 23.1 µM [inhibitor, single point]"
7,CCC(C(=O)OCC(=O)Nc1c(Cl)cc(Cl)cc1Cl)c1ccccc1 (stereo not given),"inconclusive: 14.6 µM [inhibitor, partial curve]"
8,COC(=O)CSc1nnc(NC(=O)c2ccc3c(c2)OCO3)s1,"inconclusive: 18.3 µM [activator, partial curve]"
9,Cc1ccc(S(=O)(=O)NCC(=O)NCC2COc3ccccc3O2)cc1C (stereo not given),inactive
10,O=C(NNC(=O)c1cccs1)c1ccc2ccccc2c1,"inconclusive: 16.4 µM [activator, partial curve]"
11,COc1cccc(CN(C)C(=O)C(CCSC)NS(=O)(=O)c2ccc3c(c2)OCCO3)c1OC (stereo not given),active: 4.61 µM
12,Cc1ccc(OCc2nnc(SCc3nc4ccccc4[nH]3)n2Cc2ccco2)cc1,active: 9.2 µM
13,OC1(c2cccs2)CN(c2ccc(Br)cc2)C2=[N+]1CCCS2 (stereo not given),"inconclusive: 20.6 µM [inhibitor, partial curve, poor fit]"
14,Cc1ccccc1CNC(=O)CN(c1cccc([N+](=O)[O-])c1)S(C)(=O)=O,inactive
15,CC(=O)Nc1ccc(NC(=O)CSC2=NCCS2)cc1,inactive
16,Cn1ncc(Br)c1C(=O)NC1C2CC3CC(C2)CC1C3 (stereo not given),"inconclusive: 32.6 µM [inhibitor, single point]"
17,Cc1ccc(C(=O)c2oc3ccc(Cl)cc3c2NC(=O)CN2CCN(C)CC2)cc1,inactive
18,C=CCNC(=O)/C(C#N)=C/c1cc(Br)ccc1OC,inactive
19,O=C1CN(C(=O)/C=C/c2cccc(Cl)c2)c2ccccc2N1,"inconclusive: 20.6 µM [inhibitor, single point]"
20,COc1cc(CC(=O)Nc2cccc(SC)c2)cc(OC)c1OC,"inconclusive: 4.61 µM [inhibitor, full curve]"
21,Cc1c(C(=O)NCc2ccccn2)oc2ccc(S(=O)(=O)N3CCC4(CC3)OCCO4)cc12,"inconclusive: 16.4 µM [inhibitor, partial curve, poor fit]"
22,CCOC(=O)C1CCN(C(=O)CSc2cc(=O)n(C)c3ccccc23)CC1,"inconclusive: 6.51 µM [activator, partial curve, poor fit]"
23,CCCC(=O)Nc1sc(C(=O)Nc2cccc(N)c2)c(C)c1C(=O)OC,"inconclusive: 2.91 µM [activator, full curve]"
24,C/C(=C\C(=O)c1ccc(Br)cc1)Nc1ccc(Cl)cc1,"inconclusive: 20.6 µM [activator, single point]"

row,SMILES,Potency
1,COc1ccc2cc(C#N)c(N3CCN(Cc4nnnn4CCC(C)C)CC3)nc2c1,"inconclusive: 20.6 µM [inhibitor, single point]"
2,CCC(=O)N1CCc2cc(-c3csc(NC(=O)c4ccco4)n3)ccc21,"inconclusive: 29.1 µM [inhibitor, single point]"
3,Cc1ccc(-c2nn(-c3ccccc3)cc2/C=C/C(=O)OCC(=O)NC2CC2)o1,inactive
4,CC(=O)c1c(C)[nH]c(C(=O)Nc2cccc(S(=O)(=O)N(C)C)c2)c1C,"inconclusive: 18.3 µM [activator, partial curve]"
5,Cc1ccc(C)c(CNC(=O)Nc2ccccc2)c1,"inconclusive: 18.3 µM [activator, partial curve]"
6,Cc1ccc(-n2nc3c(=O)n(CC(=O)NCCc4ccccc4C)nc(C)c3c2C)cc1,active: 3.66 µM
7,Cn1cnnc1SCC(=O)c1ccco1,inactive
8,Cc1ccc(CN2[C@@H](Cc3ccccc3)C(=O)CS2(=O)=O)cc1,"inconclusive: 29.1 µM [activator, single point]"
9,Oc1[nH]c2c(Cl)cc(Cl)cc2c1N=NC(=S)NCC1CCCO1 (stereo not given),"inconclusive: 5.8 µM [inhibitor, partial curve, poor fit]"
10,Cc1ccc(C)c(NC(=S)NC(NC(=O)Cc2cccc3ccccc23)C(Cl)(Cl)Cl)c1 (stereo not given),"inconclusive: 29.1 µM [inhibitor, single point]"
11,Cc1cc(OCCCC(=O)NCCc2nnc3ccccn23)ccc1Cl,inactive
12,Cc1ccc(OCC(=O)O/N=C(\N)c2ccncc2)cc1C,"inconclusive: 18.3 µM [activator, partial curve]"
13,O=C(Nc1ccc(O)c(-c2nc3ccccc3s2)c1)c1cccs1,"inconclusive: 29.1 µM [inhibitor, single point]"
14,NC(=O)c1ccc(-c2noc(-c3ccccc3F)n2)cc1,"inconclusive: 1.3 µM [activator, partial curve]"
15,Cc1ccc(C)c(N(C)S(=O)(=O)c2ccc3c(c2)oc(=O)n3C)c1,inactive
16,COc1ccc(NS(=O)(=O)c2cccc(C(=O)OCC(=O)N3CCN(c4ccc(OC)cc4)CC3)c2)cc1,active: 4.61 µM
17,CN(C)C1=NC[C@H](Cc2ccccc2)N1CCCC1CCCCC1,inactive
18,Cc1onc(-c2ccccc2)c1C(=O)Nc1cccc(S(=O)(=O)N2CCCCC2)c1,"inconclusive: 29.1 µM [inhibitor, single point]"
19,Cc1ccccc1NC(=O)CSCC(=O)Nc1ccccc1C,"inconclusive: 20.6 µM [activator, single point]"
20,CC(=O)c1ccc(N2CCN(S(=O)(=O)c3ccc4c(c3)NC(=O)CO4)CC2)cc1,"inconclusive: 20.6 µM [activator, single point]"
21,Nc1nc(-c2ccco2)cs1,"inconclusive: 14.1 µM [activator, single point]"
22,CCOC(=O)N1CCC(N2C(=O)c3ccccc3C2Nc2ccc3c(c2)OCCO3)CC1 (stereo not given),"inconclusive: 8.2 µM [activator, partial curve]"
23,O=C(COC(=O)c1ccccc1F)NC(=O)NC1CCCC1,inactive
24,CCCn1c(SCC(=O)N2CC(=O)Nc3ccccc32)n[nH]c1=O,inactive

row,SMILES,Potency
1,CCc1nc2oc3ccc(C)cc3c(=O)c2cc1C(=O)OC,"inconclusive: 5.8 µM [activator, partial curve]"
2,O=C(O)CCCN1C(=O)/C(=C\c2ccco2)SC1=S,inactive
3,COc1ccc(NC(=O)CC2Oc3ccccc3NC2=O)c(OC)c1 (stereo not given),inactive
4,COc1cccc(-c2cc(C(=O)NCc3ccco3)c3ccccc3n2)c1,"inconclusive: 10 µM [inhibitor, partial curve, poor fit]"
5,Cc1oc2ccc(NS(=O)(=O)c3ccc(C(C)(C)C)cc3)cc2c1C(=O)Nc1ccccc1,"inconclusive: 25.9 µM [inhibitor, single point]"
6,COc1ccc(OC)c(/C(O)=C/C(=O)C(=O)Nc2cc(C)cc(C)c2)c1,"inconclusive: 16.4 µM [inhibitor, partial curve, poor fit]"
7,O=[N+]([O-])c1ccc(Sc2nccn2Cc2ccccc2)c([N+](=O)[O-])c1,inactive
8,O=C(NC(O)C(=O)c1ccccc1)c1ccccn1 (stereo not given),inactive
9,CCCCC1CCC(C(=O)N(CCCC)c2c(N)n(CCCC)c(=O)[nH]c2=O)CC1 (stereo not given),"inconclusive: 20.6 µM [activator, partial curve, poor fit]"
10,COc1ccc(/C=C/C(=O)N2CCCc3ccccc32)c(OC)c1,"inconclusive: 18.3 µM [inhibitor, single point]"
11,COc1ccc(NC(=O)C(C)NS(=O)(=O)c2ccccc2)cc1Cl (stereo not given),inactive
12,Cc1cc(C(=O)CSc2ccc3c(c2)OCCO3)c(C)n1C1CC1,"inconclusive: 13 µM [activator, partial curve]"
13,CC(C)c1cc(Nc2cccc(O)c2)cc(C(C)C)c1O,inactive
14,O=S(=O)(c1cccs1)N1CN(C2CCCC2)c2nc3ccccc3nc21,"inconclusive: 32.6 µM [activator, partial curve, poor fit]"
15,CN(C)C(=O)c1cc(C(=O)c2ccccc2F)c[nH]1,"inconclusive: 29.1 µM [activator, single point]"
16,CC1Nc2ncnc(N3CCc4ccccc4C3)c2N(Cc2ccc(Br)cc2)C1=O (stereo not given),inactive
17,CCO[C@H]1OC(C(=O)Nc2ccccc2)=C[C@@H](c2ccc(Br)cc2)[C@@H]1CCCO,"inconclusive: 32.6 µM [inhibitor, partial curve, poor fit]"
18,Cc1cc(=O)n2c3ccccc3n(CC(O)CN3CCN(CCO)CC3)c2c1C#N (stereo not given),"inconclusive: 4.61 µM [inhibitor, full curve]"
19,CCOc1ccc(OCC)c(NC(=O)C2C3C=CC(O3)C2C(=O)NCc2ccco2)c1 (stereo not given),"inconclusive: 16.4 µM [activator, partial curve]"
20,Cn1cc(C(=O)N/N=C/C(Br)=C/c2ccccc2)ccc1=O,inactive
21,COc1ccccc1CN1CCN(Cc2nc(-c3cccs3)no2)CC1,"inconclusive: 13 µM [activator, partial curve, poor fit]"
22,CCOc1ccc(NC(=S)N2CCN(c3ccc(N4CCOCC4)nn3)CC2)cc1,"inconclusive: 18.3 µM [inhibitor, single point]"

# Ordered by length of the SMILES (descending): part of the list above.
row,SMILES,Potency
17,CCO[C@H]1OC(C(=O)Nc2ccccc2)=C[C@@H](c2ccc(Br)cc2)[C@@H]1CCCO,"inconclusive: 32.6 µM [inhibitor, partial curve, poor fit]"
7,O=[N+]([O-])c1ccc(Sc2nccn2Cc2ccccc2)c([N+](=O)[O-])c1,inactive
14,O=S(=O)(c1cccs1)N1CN(C2CCCC2)c2nc3ccccc3nc21,"inconclusive: 32.6 µM [activator, partial curve, poor fit]"
10,COc1ccc(/C=C/C(=O)N2CCCc3ccccc32)c(OC)c1,"inconclusive: 18.3 µM [inhibitor, single point]"
13,CC(C)c1cc(Nc2cccc(O)c2)cc(C(C)C)c1O,inactive
